Measurements: publication PMC9335864
Results are given in words; binding and its absence hold for the method and conditions named. Binding seen in cells or lysates may run through a third protein. Some results given as binding are weak or reduced against the parent protein; the word gives no strength.

Biological target: T1, p47 (endogenous) (human (endogenous in U2OS)) (UniProt Q9UNZ2)
T1 sequence: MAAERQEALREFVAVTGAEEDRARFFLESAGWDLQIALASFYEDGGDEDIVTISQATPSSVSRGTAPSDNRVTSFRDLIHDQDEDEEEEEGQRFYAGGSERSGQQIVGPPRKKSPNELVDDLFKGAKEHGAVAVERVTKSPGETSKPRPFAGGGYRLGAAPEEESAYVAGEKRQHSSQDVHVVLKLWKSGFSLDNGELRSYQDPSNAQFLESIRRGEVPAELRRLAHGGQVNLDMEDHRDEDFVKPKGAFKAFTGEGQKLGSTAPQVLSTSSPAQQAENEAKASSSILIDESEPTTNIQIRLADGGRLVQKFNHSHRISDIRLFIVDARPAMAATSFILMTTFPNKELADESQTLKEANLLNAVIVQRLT
Experiment: co-IP; co-IP of p47 from lysates of U2OS cells transfected with plasmids for HA-tagged antibody fragments; p47-containing complexes captured and blotted

p97 (endogenous) (from UniProt P55072 1-806)
binding: binds
